# Assay results: patent publication US20250327140A1, “A METHOD OF DETERMINING THE DOSE OF PSYCHEDELICS” (priority 2022, published 2025)
# At least one compound was matched to its structure with a doubt left.
# Test system: ABCF1
# Experiment: qPCR of ABCF1 transcription in macrophage cell line RAW264.7, dose response with psychedelics
# Format: cell-based, murine
# Settings: RAW264.7, 10 nM, 100 nM, 500 nM, 2 hours post treatment
# Experimental: • 1. Macrophage cell line RAW264.7 (ATCC) were grown to 80% confluency in growth media (DMEM+10% FBS+glutamine). • 2. Dilutions of the drugs were made at desired final concentrations for a Dose response experiment. The concentrations' used for this experiment are: 10 nM, 100 nM, 500 nM for Psilocin, Psylocibin, 4-Acetoxy-N, N-dimthyltryptamine, O-Acetyl Psilocin Fumerate, and 4-acetoxyindole. • 3. Untreated cells were used as negative control and Escitalopram at 0.3 mM was used as a positive control to activate ABCF1 expression for all the experiments. Analysis by qPCR:
# • 1. 2 hours post treatment with drugs, the reaction was stopped by removing the media with the drug. Cells were then collected and RNA was isolated from these. • 2. After checking the quality of the RNA, cDNA was generated and qPCR was run with ABCF1 primers as the target gene and GAPDH as the house keeping gene. • 3. Normalized against the expression level of GAPDH, the fold change expression level of ABCF1 was calculated and tabulated for all treatment conditions.
structure (smiles),measurement,value
"CN(C)CCc1c[nH]c2cccc(OP(=O)(O)O)c12 [psylocibin, Psylocibin]",ABCF1 transcription (fold change vs GAPDH),upregulate
